# According to PubChem BioAssay AID445 (National Center for Advancing Translational Sciences (NCATS), 2006):
# This is one part of the list. These are further read-outs of the screen, such as a control signal, another cell line or another target. No call is given for them. Most of these compounds were active or inconclusive in the main read-out, so they are no random draw. The note in brackets gives the kind of curve behind each potency; many fits are weak.
# Assay: IkB Signaling
# Conditions: ABC-DLBCL IkBa-CBG/CBR dual luciferase ratio (green luciferase fused to IkBa over red control in OCI-Ly3 lymphoma cells), 4 h
# How it was run: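 In this assay, an IκBα–CBG68 fusion accumulates when IKK-driven degradation is blocked; native CBR normalizes for cell number. OCI-Ly3 cells were treated 4 h with compound and doxycycline, then green and red light read after Chroma-Glo addition.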
# [1] = measured here: control luc red channel unless noted
# [2] = measured here: IkB-luc green channel
# [3] = measured here: control luc red channel
smiles,measurement,setting,value
COc1ccc(C(=O)NCc2ccc3c(c2)CCN3C(=O)c2ccccc2)cc1,AC50,[1],"25.1 µM [falling, single point]"
COc1ccc(NS(=O)(=O)c2ccc(-c3cnc(C4CC4)o3)cc2)cc1Cl,AC50,[1],"39.8 µM [falling, partial curve]"
COc1ccccc1-c1nnc(SCC(=O)N2CCOCC2)o1,AC50,[1],"12.6 µM [falling, partial curve]"
c1ccc(-n2nnc3c(N4CCOCC4)ncnc32)cc1,AC50,[1],"12.6 µM [falling, partial curve]"
Cc1ccc(Cl)cc1N1CCN(C(=O)c2ccc(CS(=O)c3ccccc3)o2)CC1 (stereo not given),AC50,[1],"15.8 µM [falling, partial curve]"
Cc1cc(C)cc(Nc2cc(C(=O)NCCCN(C)C3CCCCC3)c3ccccc3n2)c1,AC50,[1],"12.6 µM [falling, partial curve]"
COc1ccc(OC)c(CCNC(=O)CCn2c(=O)c3cccn3c3ccc(F)cc32)c1,AC50,[1],"15.8 µM [falling, single point]"
CCCn1nnc(NC(=O)COc2ccc(C3CCCCC3)cc2)n1,AC50,[1],"10 µM [falling, partial curve]"
CC(C)c1ccc(NC(=O)CSC2=Nc3ccccc3C3=NC(CCC(=O)NCc4ccco4)C(=O)N23)cc1 (stereo not given),AC50,[1],"20 µM [falling, partial curve]"
CN(C)c1ccc(/C=c2\sc3n(c2=O)CCCN=3)cc1,AC50,[1],"2.51 µM [falling, full curve]"
CCC(C)c1c(O)nc(SCC(=O)c2ccccc2)[nH]c1=O (stereo not given),AC50,[1],"10 µM [falling, partial curve]"
O=C(Nc1nc2c(s1)C(=O)CCC2)c1ccccc1,AC50,[1],"2 µM [falling, full curve]"
Cc1ccc(CN2CCCN(Cc3c(C)cc(C)cc3C)S2(=O)=O)cc1,AC50,[1],"10 µM [falling, partial curve]"
CCCSC1=NC2(CCN(C(=O)NC3CCCCC3)CC2)N=C1c1ccc(Cl)cc1,AC50,[1],"0.0251 µM [falling, full curve, poor fit]"
CC(C)(C)C(=O)OCc1cc(=O)n2nc(C3CC3)sc2n1,AC50,[1],"1.26 µM [rising, full curve]"
COc1ccc(-c2nnn(CC(=O)c3ccc4c(c3)OCCO4)n2)cc1OC,AC50,[1],"39.8 µM [falling, single point]"
CCCN(CCC)c1nn2c(=O)c(C(=O)NCc3cc(Br)ccc3OC)cnc2s1,AC50,[1],"20 µM [falling, partial curve]"
CCOC(=O)c1cc(-c2ccccc2)n(CC(=O)Nc2ccc(CC)cc2)c1C,AC50,[1],"2 µM [rising, partial curve]"
O=C(C1CCN(S(=O)(=O)c2cccc3nsnc23)CC1)N1CCCc2ccccc21,AC50,[1],"15.8 µM [falling, partial curve]"
Cc1ccc(C)c(NC(=O)CSc2nc3c([nH]c4ccccc43)c(=O)n2-c2ccc(F)cc2)c1,AC50,[1],"0.00631 µM [falling, full curve]"
Cc1ccc2cc(CN(Cc3ccco3)C(=O)NCc3ccccc3)c(=O)[nH]c2c1C,AC50,[1],"31.6 µM [falling, partial curve]"
COc1ccc(CC(=O)NCC(c2ccc(Cl)cc2)N2CCOCC2)cc1 (stereo not given),AC50,[1],"39.8 µM [falling, single point]"
O=C(c1c(O)c2ccccc2oc1=O)C1CCC1,AC50,[1],"20 µM [falling, partial curve]"
Cc1ccc(Cc2cn3cc(-c4ccccc4)nc3s2)cc1,AC50,[1],"15.8 µM [falling, single point]"
COc1ccc(NS(=O)(=O)c2ccc(Br)s2)cc1OC,AC50,[1],"10 µM [falling, partial curve]"
CCc1ccc(NC(=O)C2CCCN(S(=O)(=O)c3ccc(F)cc3)C2)cc1 (stereo not given),AC50,[1],"10 µM [falling, partial curve]"
CC(=O)N1CCCc2cc(S(=O)(=O)N3CCC(C(=O)NCc4ccccc4)CC3)ccc21,AC50,[1],"1 µM [rising, full curve, poor fit]"
CCN(Cc1ccccc1)C(=O)Cn1c(=O)n(-c2ccc(Cl)cc2)c(=O)c2c(C)c(C)sc21,AC50,[1],"3.98 µM [falling, full curve]"
CCc1ccc(-n2nnc(-c3nc(-c4ccc(C)cc4)no3)c2N)cc1,AC50,[1],"7.94 µM [rising, partial curve, poor fit]"
O=C(Nc1sc2c(c1C(=O)NCc1ccccc1)CCCC2)c1cc(=O)c2ccccc2o1,AC50,[1],"31.6 µM [falling, single point]"
CCOc1ccccc1C(=O)NCC(c1cccs1)S(=O)(=O)c1ccc(F)c(C)c1 (stereo not given),AC50,[1],"20 µM [falling, single point]"
O=C1Nc2ccc(I)cc2/C1=C/c1cc(Br)c(O)c(Br)c1,AC50,[1],"12.6 µM [falling, partial curve]"
Cc1ccc(C)c(N2CCN(C(=O)c3ccc4c(=O)n(CCc5ccccc5)c(=O)[nH]c4c3)CC2)c1,AC50,[1],"5.01 µM [falling, partial curve, poor fit]"
O=C(Nc1cc(-c2ccc(Cl)cc2)no1)c1ccc(F)cc1,AC50,[1],"6.31 µM [rising, partial curve]"
COc1ccc(C(=O)C(CN2CCOCC2)c2ccccc2)cc1F (stereo not given),AC50,[2],"31.6 µM [rising, single point]"
same,AC50,[3],"25.1 µM [falling, partial curve]"
CCOC(=O)c1[nH]c2c(c1Cc1ccccc1OC)C(=O)CC(c1ccccc1)C2 (stereo not given),AC50,[1],"31.6 µM [falling, partial curve]"
CCCCn1c(=O)c2oc3ccccc3c2n(Cc2ccccc2C)c1=O,AC50,[1],"5.01 µM [falling, partial curve]"
O=C(COc1ccc(F)cc1)Nc1ccccc1C(=O)OCc1cc(=O)n2ccsc2n1,AC50,[1],"20 µM [falling, single point]"
Cc1nc2ccccc2c2oc(C(=O)NCC3COc4ccccc4O3)cc12 (stereo not given),AC50,[1],"2.51 µM [falling, full curve]"
Cc1nc(-c2ccccc2)sc1CCNC(=O)C(=O)Nc1ccc(F)c(Cl)c1,AC50,[1],"0.794 µM [rising, full curve]"
NC(=O)c1ccccc1NC(=O)CN1c2ccccc2S(=O)(=O)c2ccccc21,AC50,[1],"39.8 µM [falling, single point]"
O=C(Nc1cc(-c2ccccc2F)nn1-c1ccccc1)c1ccccc1Br,AC50,[1],"39.8 µM [falling, partial curve, poor fit]"
CCCCCOC(=O)CSc1nc2sc3c(c2c(=O)n1-c1ccccc1)CC(C)(CC)OC3 (stereo not given),AC50,[1],"3.16 µM [falling, partial curve]"
CCOC(=O)c1noc2ncnc(N3CCN(c4cccc(C(F)(F)F)c4)CC3)c12,AC50,[1],"15.8 µM [falling, partial curve]"
COc1ccc(Cn2c(=O)n(-c3ccc(OC)cc3)c(=O)c3c2c2cc(OC)ccc2n3C)cc1,AC50,[1],"6.31 µM [rising, single point] [measured here: IkB-luc green channel]"
O=C(c1cc(-c2ccc3c(c2)OCO3)on1)N1CCOCC1,AC50,[1],"10 µM [falling, partial curve]"
COc1ccc(-c2cc(C)no2)cc1S(=O)(=O)NCc1ccco1,AC50,[2],"31.6 µM [rising, single point]"
same,AC50,[3],"15.8 µM [rising, partial curve]"
CCN(CC)S(=O)(=O)c1ccc2c(c1)c(=O)c(C(=O)NCc1ccccc1Cl)cn2C,AC50,[1],"39.8 µM [falling, single point]"
COc1ccc(-n2c(SCc3ccccc3F)nc3c([nH]c4ccccc43)c2=O)cc1OC,AC50,[1],"0.398 µM [falling, full curve, poor fit]"
COc1cc(NC(=O)c2c3c(nc4ccccc24)C(=O)N(C2CCCCC2)C3)cc(OC)c1,AC50,[1],"12.6 µM [falling, partial curve]"
O=C(CSc1c2c(nc3cc(Cl)ccc13)CCCC2)N1CCN(c2ccccc2)CC1,AC50,[1],"7.94 µM [falling, partial curve]"
COc1cccc([C@H]2Nc3ccc(S(=O)(=O)Nc4cc(C)ccc4C)cc3[C@H]3C=CC[C@H]32)c1,AC50,[1],"10 µM [falling, partial curve]"
Nc1nonc1C(=O)NCCNCc1cc(Br)ccc1OCc1ccccc1F,AC50,[1],"15.8 µM [falling, partial curve]"
O=C(Cn1ncc2c1-c1ccccc1OC2)Nc1nc2ccccc2s1,AC50,[2],"15.8 µM [falling, partial curve]"
same,AC50,[3],"7.94 µM [falling, partial curve]"
CC(=O)c1cc(-c2ccc(F)cc2)n(CC(=O)NCc2ccc(C)cc2)c1C,AC50,[1],"1.58 µM [falling, partial curve]"
Cc1cc(C)c(OCC(=O)Nc2cccc(-c3nc4ncccc4o3)c2)c(Br)c1,AC50,[1],"10 µM [falling, partial curve]"
COc1ccccc1NC(=O)C1C2C=CC(O2)C1C(=O)O (stereo not given),AC50,[1],"12.6 µM [falling, partial curve]"
COc1cc(Cl)c(C)cc1NC(=O)NC1COc2ccccc2C1 (stereo not given),AC50,[1],"20 µM [falling, partial curve]"
CCc1ccc(-c2ccc3nnc(SCC(=O)Nc4cccc(C(C)=O)c4)n3n2)cc1,AC50,[1],"2.51 µM [rising, partial curve]"
Cc1nc2c(C(=O)NCc3ccc4c(c3)OCO4)c[nH]n2c(=O)c1Cc1ccccc1F,AC50,[1],"7.94 µM [falling, partial curve]"
COc1cccc(-n2nnc3c(=O)n(CC(=O)NCC4CCCO4)cnc32)c1 (stereo not given),AC50,[1],"0.01 µM [falling, full curve]"
COc1ccc(CCNC(=O)Cn2c(-c3cccs3)cc3cc(F)ccc32)cc1OC,AC50,[1],"1 µM [falling, full curve, poor fit]"

# A stretch of the results above, as a working copy:
smiles,measurement,setting,value
COc1ccccc1-c1nnc(SCC(=O)N2CCOCC2)o1,AC50,[1],"12.6 µM [falling, partial curve]"
c1ccc(-n2nnc3c(N4CCOCC4)ncnc32)cc1,AC50,[1],"12.6 µM [falling, partial curve]"
Cc1ccc(Cl)cc1N1CCN(C(=O)c2ccc(CS(=O)c3ccccc3)o2)CC1 (stereo not given),AC50,[1],"15.8 µM [falling, partial curve]"
Cc1cc(C)cc(Nc2cc(C(=O)NCCCN(C)C3CCCCC3)c3ccccc3n2)c1,AC50,[1],"12.6 µM [falling, partial curve]"
COc1ccc(OC)c(CCNC(=O)CCn2c(=O)c3cccn3c3ccc(F)cc32)c1,AC50,[1],"15.8 µM [falling, single point]"
CCCn1nnc(NC(=O)COc2ccc(C3CCCCC3)cc2)n1,AC50,[1],"10 µM [falling, partial curve]"
CC(C)c1ccc(NC(=O)CSC2=Nc3ccccc3C3=NC(CCC(=O)NCc4ccco4)C(=O)N23)cc1 (stereo not given),AC50,[1],"20 µM [falling, partial curve]"
CN(C)c1ccc(/C=c2\sc3n(c2=O)CCCN=3)cc1,AC50,[1],"2.51 µM [falling, full curve]"
CCC(C)c1c(O)nc(SCC(=O)c2ccccc2)[nH]c1=O (stereo not given),AC50,[1],"10 µM [falling, partial curve]"
O=C(Nc1nc2c(s1)C(=O)CCC2)c1ccccc1,AC50,[1],"2 µM [falling, full curve]"
Cc1ccc(CN2CCCN(Cc3c(C)cc(C)cc3C)S2(=O)=O)cc1,AC50,[1],"10 µM [falling, partial curve]"
CCCSC1=NC2(CCN(C(=O)NC3CCCCC3)CC2)N=C1c1ccc(Cl)cc1,AC50,[1],"0.0251 µM [falling, full curve, poor fit]"
CC(C)(C)C(=O)OCc1cc(=O)n2nc(C3CC3)sc2n1,AC50,[1],"1.26 µM [rising, full curve]"
